In article PMC2702170, “DNA Structure Modulates the Oligomerization Properties of the AAV Initiator Protein Rep68” (PLoS Pathogens, 2009):
These are yes or no findings as the source states them, for the method shown. Some binding calls cover weakened binding; strength is not graded here.

The chains behind the UniProt entries cited, without tags or fusion partners.
UniProt P03132: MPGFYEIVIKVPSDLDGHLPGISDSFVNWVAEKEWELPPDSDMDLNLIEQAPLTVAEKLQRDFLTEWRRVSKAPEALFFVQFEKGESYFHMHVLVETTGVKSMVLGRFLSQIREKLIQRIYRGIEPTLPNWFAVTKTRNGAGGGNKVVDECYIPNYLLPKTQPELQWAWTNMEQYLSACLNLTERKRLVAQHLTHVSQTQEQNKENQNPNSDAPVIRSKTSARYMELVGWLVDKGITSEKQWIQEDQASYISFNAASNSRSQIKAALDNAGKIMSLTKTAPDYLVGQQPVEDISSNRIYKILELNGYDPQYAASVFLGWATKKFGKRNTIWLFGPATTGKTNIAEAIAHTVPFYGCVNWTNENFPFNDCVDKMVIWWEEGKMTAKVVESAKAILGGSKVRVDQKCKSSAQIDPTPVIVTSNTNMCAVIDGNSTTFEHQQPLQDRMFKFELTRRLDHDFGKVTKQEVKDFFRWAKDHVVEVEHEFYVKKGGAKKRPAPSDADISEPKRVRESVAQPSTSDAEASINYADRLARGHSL

Columns and labels:
[1] = target: Rep68 (adeno-associated virus 2), non-tagged (adeno-associated virus 2 (AAV2)) (UniProt P03132); experiment: SAXS; purified Rep68-ssDNA complex; radius of gyration; both purified
[2] = target: Rep68 (adeno-associated virus 2), non-tagged (adeno-associated virus 2 (AAV2)) (UniProt P03132); experiment: SAXS; purified Rep68-RBS dsDNA complex; radius of gyration; both purified
[3] = target: Rep68 (adeno-associated virus 2), non-tagged (adeno-associated virus 2 (AAV2)) (UniProt P03132); experiment: SEC; preliminary gel filtration of the Rep68-ATP complex, no DNA; data not shown; both purified
[4] = target: Rep68 (adeno-associated virus 2), non-tagged (adeno-associated virus 2 (AAV2)) (UniProt P03132); experiment: SEC; Superose 6 10/300 GL, buffer A; Rep68 16.6 µM incubated with 2.8 µM RBS dsDNA 30 min on ice; both purified
[5] = target: Rep68 (adeno-associated virus 2), non-tagged (adeno-associated virus 2 (AAV2)) (UniProt P03132); experiment: AUC; sedimentation velocity; Rep68 1 mg/ml with 2.8 µM ssDNA (polydT25), buffer A, 45,000 rpm, 20°C; both purified
[6] = target: Rep68 (adeno-associated virus 2), non-tagged (adeno-associated virus 2 (AAV2)) (UniProt P03132); experiment: SEC; Superose 6, buffer A; Rep68 16.6 µM incubated with 2.8 µM ssDNA-dsDNA heteroduplex (25-nt 3' poly-dT tail), unlabelled or Cy5-labelled (2.8 or 2.1 µM); both purified
[7] = target: Rep68 (adeno-associated virus 2), non-tagged (adeno-associated virus 2 (AAV2)) (UniProt P03132); experiment: SEC; Superose 6 10/300 GL, buffer A (25 mM Tris-HCl pH 8.0, 200 mM NaCl, 5% glycerol, 1 mM TCEP); Rep protein 16.6 µM incubated with 2.8 µM ssDNA (polydT25) 30 min on ice; also with 1 mM ATP, ATP/CaCl2 or ATP/MgCl2 added (same complex); both purified

Measured: binding

Rep68 (adeno-associated virus 2), non-tagged (from UniProt P03132 1-536)
binds: all assays above
